PubChem BioAssay AID1224828 – NIAID | 2016

- Assay: 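Find genes required for NF-kappaB p65 moving into the nucleus after LPS in mouse macrophages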 (primary screen)
- System: mouse RAW264.7 G9 macrophage reporter cells (GFP-p65, Tnf promoter-mCherry)
- Reagents: siRNA pool against mouse genes, 100 nM
- Duration: 2 days siRNA transfection, then 40 min LPS before fixation
- Treatment: LPS (Salmonella minnesota R595) at 10 ng/ml
- Detection: 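Imaged p65 nuclear translocation ratio, normalised to the plate median, converted to robust z-scores and averaged across two replicates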
- Direction: p65 translocation robust z-score: higher = more nuclear NF-kappaB p65 after LPS than the plate median; nuclear/cytoplasmic p65 ratio: higher = more nuclear NF-kappaB p65
- Rule for the call: 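Called active when z exceeds 3.3 or falls under -1.56 (median of Tlr4 controls), giving activity score of at least 50; no calls for control wells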
- Meaning of the calls: active = hit (p65 shift raised or lowered); inactive = no clear change
In all, the deposit lists about 17,000 reagents; this is an unselected part. In the full data, 762 (4.5%) were called active. 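Active calls include both raised and lowered p65 entry, mostly lowered; wells with fewer than 50 cells lack a z-score.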 The raw values are shown without normalisation. Unmarked entries are inactive. Reagents against one gene are numbered here. Reagent sequences are not shown.

With Mrgpra2b (MAS-related GPR, member A2B), what does the deposit list?
p65 translocation robust z-score: 2.24; nuclear/cytoplasmic p65 ratio, rep 1: 2.06; nuclear/cytoplasmic p65 ratio, rep 2: 2.01; low cell count flag: enough cells to score

Which result is listed for Gngt1?
p65 translocation robust z-score: 1.24; nuclear/cytoplasmic p65 ratio, rep 1: 1.82; nuclear/cytoplasmic p65 ratio, rep 2: 1.73; low cell count flag: enough cells to score

What is on record for Ska2 (spindle and kinetochore associated complex subunit 2)?
p65 translocation robust z-score: 0.38; nuclear/cytoplasmic p65 ratio, rep 1: 1.68; nuclear/cytoplasmic p65 ratio, rep 2: 1.41; low cell count flag: enough cells to score

How did the screen score Cep295nl (CEP295 N-terminal like)?
p65 translocation robust z-score: -1.3; nuclear/cytoplasmic p65 ratio, rep 1: 1.5; nuclear/cytoplasmic p65 ratio, rep 2: 1.39; low cell count flag: enough cells to score

What did the screen give for Tarbp2 (TARBP2, RISC loading complex RNA binding subunit)?
p65 translocation robust z-score: -0.46; nuclear/cytoplasmic p65 ratio, rep 1: 1.42; nuclear/cytoplasmic p65 ratio, rep 2: 1.49; low cell count flag: enough cells to score

With Or6z3 (olfactory receptor family 6 subfamily Z member 3), how do the results read?
p65 translocation robust z-score: 0.25; nuclear/cytoplasmic p65 ratio, rep 1: 1.64; nuclear/cytoplasmic p65 ratio, rep 2: 1.54; low cell count flag: enough cells to score

What is on record for Uckl1 (uridine-cytidine kinase 1-like 1)?
nuclear/cytoplasmic p65 ratio, rep 1: 1.57; nuclear/cytoplasmic p65 ratio, rep 2: 1.43; low cell count flag: fewer than 50 cells per well; well left out of scoring

For Abcc8 (ATP-binding cassette, sub-family C member 8) #1, how do the results read?
p65 translocation robust z-score: -1.3; nuclear/cytoplasmic p65 ratio, rep 1: 1.47; nuclear/cytoplasmic p65 ratio, rep 2: 1.42; low cell count flag: enough cells to score

With Abcc8 (ATP-binding cassette, sub-family C member 8) #2, what was measured?
p65 translocation robust z-score: -0.38; nuclear/cytoplasmic p65 ratio, rep 1: 1.44; nuclear/cytoplasmic p65 ratio, rep 2: 1.57; low cell count flag: enough cells to score

With Kmt2a (lysine (K)-specific methyltransferase 2A), what was measured?
p65 translocation robust z-score: -0.64; nuclear/cytoplasmic p65 ratio, rep 1: 1.26; nuclear/cytoplasmic p65 ratio, rep 2: 1.35; low cell count flag: enough cells to score

For Or4d2b (olfactory receptor family 4 subfamily D member 2B), what was measured?
nuclear/cytoplasmic p65 ratio, rep 1: 1.31; nuclear/cytoplasmic p65 ratio, rep 2: 1.23; low cell count flag: fewer than 50 cells per well; well left out of scoring

Which result is listed for Smad7 (SMAD family member 7)?
p65 translocation robust z-score: 1.92; nuclear/cytoplasmic p65 ratio, rep 1: 1.94; nuclear/cytoplasmic p65 ratio, rep 2: 1.66; low cell count flag: enough cells to score

For Angptl6 (angiopoietin-like 6), what does the deposit list?
p65 translocation robust z-score: 1.86; nuclear/cytoplasmic p65 ratio, rep 1: 1.94; nuclear/cytoplasmic p65 ratio, rep 2: 1.91; low cell count flag: enough cells to score

Which result is listed for Mapk11 (mitogen-activated protein kinase 11)?
p65 translocation robust z-score: -0.38; nuclear/cytoplasmic p65 ratio, rep 1: 1.52; nuclear/cytoplasmic p65 ratio, rep 2: 1.42; low cell count flag: enough cells to score

For Nherf1 (NHERF family PDZ scaffold protein 1), what does the deposit list?
p65 translocation robust z-score: 0.03; nuclear/cytoplasmic p65 ratio, rep 1: 1.41; nuclear/cytoplasmic p65 ratio, rep 2: 1.25; low cell count flag: enough cells to score

How did the screen score Ncaph2 (non-SMC condensin II complex, subunit H2)?
p65 translocation robust z-score: -0.59; nuclear/cytoplasmic p65 ratio, rep 1: 1.4; nuclear/cytoplasmic p65 ratio, rep 2: 1.78; low cell count flag: enough cells to score

What did the screen give for Fbxo3 (F-box protein 3)?
p65 translocation robust z-score: 0.14; nuclear/cytoplasmic p65 ratio, rep 1: 1.45; nuclear/cytoplasmic p65 ratio, rep 2: 1.41; low cell count flag: enough cells to score

What is on record for Glce (glucuronyl C5-epimerase)?
p65 translocation robust z-score: 1.25; nuclear/cytoplasmic p65 ratio, rep 1: 1.5; nuclear/cytoplasmic p65 ratio, rep 2: 1.65; low cell count flag: enough cells to score

What is on record for Spast (spastin)?
p65 translocation robust z-score: -0.44; nuclear/cytoplasmic p65 ratio, rep 1: 1.48; nuclear/cytoplasmic p65 ratio, rep 2: 1.49; low cell count flag: enough cells to score

For Vmn1r235 (vomeronasal 1 receptor 235), how do the results read?
p65 translocation robust z-score: -0.25; nuclear/cytoplasmic p65 ratio, rep 1: 1.42; nuclear/cytoplasmic p65 ratio, rep 2: 1.14; low cell count flag: enough cells to score

Which result is listed for Reep3 (receptor accessory protein 3)?
p65 translocation robust z-score: -1.13; nuclear/cytoplasmic p65 ratio, rep 1: 1.4; nuclear/cytoplasmic p65 ratio, rep 2: 1.61; low cell count flag: enough cells to score

Laid out differently: results already given.
{"target":"Ncaph2 (non-SMC condensin II complex, subunit H2)","pool no.":1,"p65 translocation robust z-score":-0.59,"nuclear/cytoplasmic p65 ratio, rep 1":1.4,"nuclear/cytoplasmic p65 ratio, rep 2":1.78,"low cell count flag":"enough cells to score"}
{"target":"Fbxo3 (F-box protein 3)","pool no.":1,"p65 translocation robust z-score":0.14,"nuclear/cytoplasmic p65 ratio, rep 1":1.45,"nuclear/cytoplasmic p65 ratio, rep 2":1.41,"low cell count flag":"enough cells to score"}
{"target":"Glce (glucuronyl C5-epimerase)","pool no.":1,"p65 translocation robust z-score":1.25,"nuclear/cytoplasmic p65 ratio, rep 1":1.5,"nuclear/cytoplasmic p65 ratio, rep 2":1.65,"low cell count flag":"enough cells to score"}
